Earlier results as cited in patent publication US6913892B1, “Method of obtaining compositions comprising Y4 specific compounds” (H. Lundbeck A/S, priority 1993, dated 2005).
At least one structure is not confirmed: it was looked up by name or label, or the drawing left a doubt. Some results were stated once for a whole list of compounds, not compound by compound.

How the values were obtained:
Y3 receptor = details: Table 1, rank orders from published reports; cited from earlier work
PP receptor = details: Table 1, rank orders from published reports; cited from earlier work

For `CC[C@H](C)[C@H](NC(=O)[C@H](Cc1ccc(O)cc1)NC(=O)[C@H](CCCNC(=N)N)NC(=O)[C@H](CCCNC(=N)N)NC(=O)[C@H](CC(C)C)NC(=O)[C@H](CC(=O)O)NC(=O)[C@H](C)NC(=O)[C@H](C)NC(=O)[C@H](Cc1ccc(O)cc1)NC(=O)[C@H](CCC(N)=O)NC(=O)[C@H](C)NC(=O)[C@H](CCSC)NC(=O)[C@H](CCC(N)=O)NC(=O)[C@H](CCC(=O)O)NC(=O)[C@@H]1CCCN1C(=O)[C@@H](NC(=O)[C@H](C)NC(=O)[C@H](CC(N)=O)NC(=O)[C@H](CC(=O)O)NC(=O)CNC(=O)[C@@H]1CCCN1C(=O)[C@H](Cc1ccc(O)cc1)NC(=O)[C@@H](NC(=O)[C@@H]1CCCN1C(=O)[C@H](CCC(=O)O)NC(=O)[C@H](CC(C)C)NC(=O)[C@@H]1CCCN1C(=O)[C@H](C)N)C(C)C)[C@@H](C)O)C(=O)N[C@@H](CC(N)=O)C(=O)N[C@@H](CCSC)C(=O)N[C@@H](CC(C)C)C(=O)N[C@H](C(=O)N[C@@H](CCCNC(=N)N)C(=O)N1CCC[C@H]1C(=O)N[C@@H](CCCNC(=N)N)C(=O)N[C@@H](Cc1ccc(O)cc1)C(N)=O)[C@@H](C)O` [PP, pancreatic polypeptide], the “Affinity (−pKi or −pEC50), Y3” value (Y3 receptor) is given as 8 to 7 and the “Affinity (−pKi or −pEC50), PP” value (PP receptor) is given as 11 to 10.
